Four molecules from publication PMC7031615 can be followed below.

No constants are given. Whether binding was seen depends on the method and setting. For some of these results: Binding seen in cells or lysates may run through a third protein. Some entries that bind do so weakly or less than the wild type. For some of these results: Tags and fused reporters may be left off the sequences shown.

For assay [1], the target named is T1, myc.Pex13.2 (Trypanosoma brucei) (UniProt Q38E51).
T1 sequence: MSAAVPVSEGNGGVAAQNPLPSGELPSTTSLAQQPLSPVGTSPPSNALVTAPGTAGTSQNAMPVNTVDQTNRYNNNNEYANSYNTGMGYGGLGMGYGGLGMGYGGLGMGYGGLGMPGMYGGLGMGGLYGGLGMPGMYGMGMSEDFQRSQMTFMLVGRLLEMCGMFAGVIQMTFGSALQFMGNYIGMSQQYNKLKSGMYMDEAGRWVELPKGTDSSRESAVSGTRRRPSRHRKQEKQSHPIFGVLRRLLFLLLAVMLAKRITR
The assay is described as follows: co-IP; cells co-expressing HA.Pex13.1 and myc.Pex13.2 incubated with DTSSP (2.5 M [sic]) for 30 min before hypotonic lysis (second lysate with 0.5% IGEPAL); lysates incubated overnight at 4°C with anti-HA or anti-myc magnetic beads; washed with 5x TBS-T; SDS-PAGE and Western blot; parental PF 2913 cells as control. For orientation: In western blotting, separated proteins are transferred to a membrane and probed.

For assay [2], the target named is T2, HA.Pex13.1 (Trypanosoma brucei) (UniProt Q388D2).
T2 sequence: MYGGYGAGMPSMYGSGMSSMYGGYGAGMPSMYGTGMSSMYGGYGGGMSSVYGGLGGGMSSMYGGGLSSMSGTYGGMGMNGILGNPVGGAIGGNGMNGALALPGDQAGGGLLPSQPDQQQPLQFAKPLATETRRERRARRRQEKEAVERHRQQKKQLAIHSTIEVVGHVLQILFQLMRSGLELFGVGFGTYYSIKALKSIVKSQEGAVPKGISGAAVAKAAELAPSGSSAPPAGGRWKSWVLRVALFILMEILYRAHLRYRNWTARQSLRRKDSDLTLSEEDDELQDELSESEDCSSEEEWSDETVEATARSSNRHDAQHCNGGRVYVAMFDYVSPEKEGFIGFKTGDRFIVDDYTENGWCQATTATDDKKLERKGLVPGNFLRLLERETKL
The description is as above.

For assay [3], the target named is T3, Pex13.1 (Trypanosoma brucei (endogenous in procyclic-form 2913 cells)) (UniProt Q388D2).
T3 sequence: T2 sequence
The assay is described as follows: native gel or EMSA; 2-dimensional blue native PAGE (4-16% Bis-Tris) then SDS-PAGE and Western blot; organelle-enriched (glycosome) fraction of PF 2913 cells solubilised in 1% n-dodecyl-β-D-maltoside sample buffer.

For assay [4], the target named is T4, Pex13.2 (Trypanosoma brucei (endogenous in procyclic-form 2913 cells)) (UniProt Q38E51).
T4 sequence: T1 sequence
The description is as above.

B1: HA.Pex13.1 (protein, UniProt Q388D2 1-391)
chain: T2 sequence
On to B1, for which the binding entry in assay [1] is recorded as “binds”.

B2: myc.Pex13.2 (protein, UniProt Q38E51 1-262)
chain: T1 sequence
Consider B2, for which the binding result in assay [2] is given as “binds”.

B3: Pex13.2 (protein, UniProt Q38E51 1-262)
chain: T1 sequence
With B3, the binding entry in assay [3] is recorded as “binds”.

B4: Pex14 (protein, UniProt Q38CL4 1-366)
chain: MSLLLSGVVDDGKSKPEVEHTHSEREKRVSNAVEFLLDSRVRRTPTSSKVHFLKSKGLSAEEICEAFTKVGQPKTLNEIKRILSERPYVPTGPNSQHMTQPLRDESADSVPTPHPNQSRRHTSLLYAPQAPPLPEAAAATRGVDWRDLVIGAGAAVIGGFAAFKAFQLYSPYEIRLKDEGSKPRSRRSRRGGRHASSDSEAERSLVHREVPALPVPAIPVASESHVDAKQAEIERLKTELKETQEALEAEKKGKAELSITLGKLRGQVTAYSRTNEKQESQIKSLQEEVNRLKSEIERKEDSAKVNANSNVEETLDSKEEGLPSSDTESSNPNGASSEVARDTQQQDGPAPLSTETDGTVVGGEAA
Turning to B4, the binding entry in assay [3], in assay [4], in assay [2] and in assay [1] was “binds” each time.
